The values below come from publication doi:10.1101/2025.10.22.683978.

Protein sequences, listed by entry. Tags and fused reporters are not part of them.
UniProt P14859: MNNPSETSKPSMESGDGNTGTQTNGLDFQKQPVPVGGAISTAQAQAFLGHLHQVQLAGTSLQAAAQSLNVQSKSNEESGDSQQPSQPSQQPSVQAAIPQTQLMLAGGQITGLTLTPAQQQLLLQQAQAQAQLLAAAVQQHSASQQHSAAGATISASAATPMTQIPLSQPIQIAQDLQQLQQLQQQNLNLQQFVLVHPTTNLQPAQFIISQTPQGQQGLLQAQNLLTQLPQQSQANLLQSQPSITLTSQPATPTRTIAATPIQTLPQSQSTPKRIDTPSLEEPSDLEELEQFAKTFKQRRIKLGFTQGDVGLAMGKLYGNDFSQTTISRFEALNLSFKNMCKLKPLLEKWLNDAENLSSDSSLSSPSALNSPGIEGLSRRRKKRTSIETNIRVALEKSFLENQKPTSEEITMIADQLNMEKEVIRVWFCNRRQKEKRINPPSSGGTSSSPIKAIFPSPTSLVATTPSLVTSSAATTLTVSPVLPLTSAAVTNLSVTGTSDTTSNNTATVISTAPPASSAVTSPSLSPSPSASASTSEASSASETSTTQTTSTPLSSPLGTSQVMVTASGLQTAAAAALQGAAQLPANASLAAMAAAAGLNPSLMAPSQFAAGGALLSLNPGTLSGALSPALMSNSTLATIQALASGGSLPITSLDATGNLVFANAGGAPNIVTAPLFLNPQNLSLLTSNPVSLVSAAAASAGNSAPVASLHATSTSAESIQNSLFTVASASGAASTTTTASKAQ

These are yes or no findings as the source states them, for the method shown. In cells and extracts the contact can be indirect. Some results given as binding are weak or reduced against the parent protein; the word gives no strength. Where a sequence is shown, tags or fusion partners need not be part of it.

The assay addresses full-length human Oct1 with N-terminal nLuc (NanoBRET donor) (human) (UniProt P14859). As to the kind of experiment: FRET or BRET. (In general: In BRET a luciferase serves as donor, and the signal depends on an acceptor being close.)

B1: full-length human OCA-B with a C-terminal HaloTag (NanoBRET acceptor) (protein, UniProt Q16633 1-256)
chain: MLWQKPTAPEQAPAPARPYQGVRVKEPVKELLRRKRGHASSGAAPAPTAVVLPHQPLATYTTVGPSCLDMEGSVSAVTEEAALCAGWLSQPTPATLQPLAPWTPYTEYVPHEAVSCPYSADMYVQPVCPSYTVVGPSSVLTYASPPLITNVTTRSSATPAVGPPLEGPEHQAPLTYFPWPQPLSTLPTSTLQYQPPAPALPGPQFVQLPISIPEPVLQDMEDPRRAASSLTIDKLLLEEEDSDAYALNHTLSVEGF
Take B1: the binding entry is “binds”.
